Reference: article PMC4673902 (Journal of medicinal chemistry, 2012)

Test system: JmjC demethylases and related 2OG oxygenases
Test: Screen across the 2OG oxygenase panel
Format: biochemical, human
Details: % inhibition of the enzyme at 20 μM compound, AlphaScreen; described in words

O=C(CCCCCCC(=O)Nc1ccccc1)NO [compound 15, suberoylanilide hydroxamic acid]
inhibition across the panel (heatmap, in words): inhibited several histone demethylases
